Out of some 340,000 compounds screened, about 6,200 (1.8%) were called active. The inconclusive results got no clear call from the source; some entries with a clear call stand among them for comparison. Calls come from the whole dose curve; as a rule, active = well fitted activation curve with a large enough effect; inconclusive = small, poorly fitted or top-dose-only effect; inactive = no such curve, though single readings can be large or run the other way. A potency beside an inconclusive call is a rough fit, not a confirmed value.
Assay: A quantitative high throughput screen for small molecules that induce DNA re-replication in SW480 colon adenocarcinoma cells. For re-replication activation: % of control where 0% means no effect. Note: nearly all actives have a fitted effect of over 55% in size.
Settings: Hoechst DNA content imaging, 48 h; re-replication activation: at 46.1 µM (top of the series)
How it was run: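 Image-based DNA-content assay: after two days of treatment, nuclei were labelled with the DNA dye Hoechst and imaged, and hits were compounds raising the count of nuclei showing high fluorescence intensity.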
Potency is the fitted concentration of half-maximal effect.

Row | SMILES | re-replication activation | Potency
1 | O=C(CN1C(=O)NC2(CCCC2)C1=O)OCCOc1ccc(F)cc1 | inactive: -58.9% | –
2 | CCOc1ccc(/C=C/c2c([N+](=O)[O-])c(=O)n(C)c(=O)n2C)cc1 | – | inconclusive: 29.1 µM [activator, single point]
3 | COc1ccc(COc2cc(-c3cccc(OC)c3)nc3ccc(NC(=O)c4cccnc4)cc23)cc1 | – | inconclusive: 16.4 µM [activator, single point]
4 | O=C(COC(=O)c1ccc[nH]c1=O)NCCCc1ccccc1 | – | inconclusive: 11.6 µM [activator, single point]
5 | CCOC(=O)[C@@H]1[C@H]2COc3ccc(Br)cc3[C@H]2N2C(=O)N(c3cccc(Cl)c3)C(=O)[C@]12C | inactive: 3.25% | –
6 | O=C1CC(C(=O)Nc2ccc(F)c(Cl)c2)N=C(N2CCCCC2)N1 (stereo unspecified) | – | inconclusive: 29.1 µM [activator, single point]
7 | CCOc1cc(CNc2ccc(N(C)C)cc2)cc(Br)c1OCC(=O)NC(C)(C)C | – | inconclusive: 18.4 µM [activator, single point]
8 | Cc1cccc(NC(=O)CSCC(=O)N(C)Cc2ccc3c(c2)OCCO3)c1 | – | inconclusive: 11.6 µM [activator, partial curve, poor fit]
9 | CC1(C)CC(=O)C(N=Nc2ccc(Br)cc2)=C(O)C1 | inactive: -31.4% | –
10 | Cc1ccc(NC(=S)NC2CCSc3ccccc32)cc1C (stereo unspecified) | – | active: 18.4 µM
11 | COCCNC(=O)C1CC(c2ccccc2[N+](=O)[O-])=NO1 (stereo unspecified) | – | inconclusive: 0.411 µM [activator, partial curve, poor fit]
12 | O=C(CN(c1ccc(Br)cc1)S(=O)(=O)c1ccc(Cl)c([N+](=O)[O-])c1)NCC1CCCO1 (stereo unspecified) | – | inconclusive: 29.1 µM [activator, single point]
13 | CN(CC(=O)Nc1ccccc1Br)C(=O)c1ccc(-c2ccc(Cl)cc2)o1 | – | inconclusive: 11.6 µM [activator, partial curve, poor fit]
14 | CCn1c(SC(C)C(=O)Nc2ccc(N3CCOCC3)cc2)nnc1C1CC1 (stereo unspecified) | – | inconclusive: 29.1 µM [activator, single point]
15 | COc1ccc(-n2nc3c(c2NC(=O)C(C)Cl)CSC3)cc1 (stereo unspecified) | inactive: 2.36% | –
16 | COc1cccc(NC(=O)[C@H](Cc2ccccc2)NC(=O)[C@@H]2Cc3ccccc3CN2)c1 | – | inconclusive: 2.31 µM [activator, partial curve, poor fit]
17 | C#CCN(C)Cc1ccccc1 | – | inconclusive: 0.146 µM [activator, single point]
18 | COc1cccc(/C=N/NC(=O)CNC(=O)c2cccs2)c1O | inactive: -7.04% | –
19 | CC(C)CCC(O)(CCC(C)C)C(=O)NNc1ccccc1 | – | inconclusive: 29.1 µM [activator, partial curve, poor fit]
20 | COc1cc2c(C(=O)N3CCN(c4ccccc4F)CC3)cn(C)c(=O)c2cc1OC | inactive: 2.33% | –
21 | Cc1c(C=O)n(C)n(-c2ccccc2)c1=O | – | inconclusive: 0.146 µM [activator, full curve, poor fit]
22 | COc1ccc(-n2c(SCC(=O)NCC3CCCO3)nc3c(c2=O)SC(C)C3)cc1 (stereo unspecified) | inactive: -0.032% | –

Some of these compounds in order of count of non-hydrogen atoms, descending:
Row | SMILES | re-replication activation | Potency
3 | COc1ccc(COc2cc(-c3cccc(OC)c3)nc3ccc(NC(=O)c4cccnc4)cc23)cc1 | – | inconclusive: 16.4 µM [activator, single point]
16 | COc1cccc(NC(=O)[C@H](Cc2ccccc2)NC(=O)[C@@H]2Cc3ccccc3CN2)c1 | – | inconclusive: 2.31 µM [activator, partial curve, poor fit]
12 | O=C(CN(c1ccc(Br)cc1)S(=O)(=O)c1ccc(Cl)c([N+](=O)[O-])c1)NCC1CCCO1 (stereo unspecified) | – | inconclusive: 29.1 µM [activator, single point]
22 | COc1ccc(-n2c(SCC(=O)NCC3CCCO3)nc3c(c2=O)SC(C)C3)cc1 (stereo unspecified) | inactive: -0.032% | –
14 | CCn1c(SC(C)C(=O)Nc2ccc(N3CCOCC3)cc2)nnc1C1CC1 (stereo unspecified) | – | inconclusive: 29.1 µM [activator, single point]
13 | CN(CC(=O)Nc1ccccc1Br)C(=O)c1ccc(-c2ccc(Cl)cc2)o1 | – | inconclusive: 11.6 µM [activator, partial curve, poor fit]
1 | O=C(CN1C(=O)NC2(CCCC2)C1=O)OCCOc1ccc(F)cc1 | inactive: -58.9% | –
2 | CCOc1ccc(/C=C/c2c([N+](=O)[O-])c(=O)n(C)c(=O)n2C)cc1 | – | inconclusive: 29.1 µM [activator, single point]
4 | O=C(COC(=O)c1ccc[nH]c1=O)NCCCc1ccccc1 | – | inconclusive: 11.6 µM [activator, single point]
15 | COc1ccc(-n2nc3c(c2NC(=O)C(C)Cl)CSC3)cc1 (stereo unspecified) | inactive: 2.36% | –
11 | COCCNC(=O)C1CC(c2ccccc2[N+](=O)[O-])=NO1 (stereo unspecified) | – | inconclusive: 0.411 µM [activator, partial curve, poor fit]
9 | CC1(C)CC(=O)C(N=Nc2ccc(Br)cc2)=C(O)C1 | inactive: -31.4% | –
21 | Cc1c(C=O)n(C)n(-c2ccccc2)c1=O | – | inconclusive: 0.146 µM [activator, full curve, poor fit]

The list goes on.

Row | SMILES | re-replication activation | Potency
23 | Cc1nnc(NC(=O)c2nc(S(=O)(=O)Cc3ccccc3C)ncc2Cl)s1 | – | inconclusive: 5.8 µM [activator, single point]
24 | CC1CCCCC1NC(=O)C1CCN(S(=O)(=O)N2CCC3(CC2)OCCO3)CC1 (stereo unspecified) | – | inconclusive: 0.146 µM [activator, full curve, poor fit]
25 | O=C(Nc1ccccc1C(=O)N/N=C/c1ccco1)c1ccc(Cl)cc1 | – | inconclusive: 3.26 µM [activator, single point]
26 | C/C(=N/NC(=O)c1cc(-c2ccc(Br)s2)[nH]n1)c1ccco1 | inactive: -12.6% | –
27 | COc1ccccc1/C=C/C1(C(=O)NC2CCCC2)CC(=O)N1c1ccc(C)cc1 (stereo unspecified) | – | inconclusive: 25.9 µM [activator, single point]
28 | O=C(COc1ccc(/C=N/NC(=O)c2cc3ccccc3o2)cc1Cl)Nc1ccccc1 | inactive: 7.58% | –
29 | CCCCCCOc1ccc(OC(=O)c2cccnc2)cc1 | – | active: 8.2 µM
30 | COc1cc(CNCc2ccccn2)ccc1OCc1c(Cl)cccc1Cl | – | inconclusive: 29.1 µM [activator, single point]
31 | CC(=O)c1sc(NC(=O)CCS(=O)(=O)c2ccc(Cl)cc2)nc1C | – | inconclusive: 5.62 µM [activator, partial curve]
32 | Cc1cc(=O)[nH]c(NN)n1 | – | inconclusive: 18.4 µM [activator, single point]
33 | COC(=O)c1nnn(CC(=O)Nc2cccc(Cl)c2C)c1C(=O)OC | – | inconclusive: 0.103 µM [activator, full curve, poor fit]
34 | COc1ccc(OCCCC(=O)Nc2cccc([N+](=O)[O-])c2)cc1 | – | inconclusive: 23.1 µM [activator, partial curve, poor fit]
35 | FC(F)(F)c1ccc(-c2csc(-c3ccno3)n2)cc1 | inactive: 5.96% | –
36 | CCCC(=O)Nc1ccc(-c2cnc(-c3ccc(NC(=O)CCC)cc3)nc2)cc1 | – | inconclusive: 5.17 µM [activator, full curve, poor fit]
37 | Oc1ccc(Cl)cc1CNCc1ccc(Cl)nc1 | inactive: -7.81% | –
38 | Cn1c(Cl)c(/C=N/OC(=O)c2ccc(Cl)cc2)c2ccccc21 | inactive: -9.64% | –
39 | O=C(CCl)Nc1ccc(S(=O)(=O)Nc2nccs2)cc1 | – | inconclusive: 20.6 µM [activator, single point]
40 | O=C(NCc1ccco1)C1CCCN(c2ncnc3c2nc2n3CCCCC2)C1 (stereo unspecified) | inactive: 1.78% | –
41 | CCCCCc1cc(=O)oc2c(C(CCN3CCCC(C)C3)c3ccc(OC)cc3)c(OC)cc(OC)c12 (stereo unspecified) | – | inconclusive: 9.2 µM [activator, partial curve, poor fit]
42 | CCOc1ccc(/C=C2\SC(=S)N(C)C2=O)cc1OC | – | inconclusive: 3.66 µM [activator, single point]
43 | CN1CCN(c2ccc(NC(=O)c3ccc(-c4ccc(Cl)cc4)o3)cc2)CC1 | – | inconclusive: 29.1 µM [activator, single point]
44 | O=c1[nH]c2ccccc2nc1C(F)(F)F | – | inconclusive: 11.6 µM [activator, partial curve]

Row | SMILES | re-replication activation | Potency
45 | CCOC(=O)c1sc(NC(=O)c2c(C)nn(Cc3ccccc3)c2C)cc1C | – | inconclusive: 29.1 µM [activator, partial curve, poor fit]
46 | COc1ccc(NS(=O)(=O)c2ccc(-c3coc(C)n3)cc2)c(OC)c1 | – | inconclusive: 23.1 µM [activator, single point]
47 | O=C(/C=C/c1ccccc1)N/C(=C/c1ccccc1)C(=O)NCCCO | – | inconclusive: 0.92 µM [activator, full curve, poor fit]
48 | Cc1ccc(OCCNC(=O)CNC(=O)c2ccc(C)cc2)cc1 | inactive: -1.98% | –
49 | COc1ccccc1N1CCN(C/C(C)=C/c2ccccc2)CC1 | inactive: -0.67% | –
50 | CC(C)n1ncc2c(C(=O)Nc3ccc(CC#N)cc3)cc(C3CC3)nc21 | – | inconclusive: 18.4 µM [activator, single point]
51 | O=C(Cc1cccs1)NCc1ccccc1Br | – | inconclusive: 16.4 µM [activator, single point]
52 | COc1ccccc1C(=O)Nc1c2c(nn1-c1ccc(Cl)cc1)CS(=O)(=O)C2 | – | inconclusive: 6.51 µM [activator, single point]
53 | CCN(CC)C(=O)[C@H]1C[C@H](CC(=O)NCCCn2ccnc2)C(=O)N2CCc3c([nH]c4cc(-c5ccco5)ccc34)[C@]12C | – | inconclusive: 29.1 µM [activator, single point]
54 | CCOC(=O)c1ccc(NC(=O)CC2S/C(=N/N=C/c3c[nH]c4ccccc34)NC2=O)cc1 (stereo unspecified) | – | inconclusive: 20.6 µM [activator, partial curve, poor fit]
55 | CN1C(=O)/C(=C/c2ccco2)SC1=Nc1ccc(N2CCOCC2)cc1 | inactive: -12.3% | –
56 | Cc1noc(C)c1COC(=O)CNC(=O)c1cccc(F)c1 | – | inconclusive: 0.58 µM [activator, partial curve, poor fit]
57 | CC(Oc1ccccc1)C(=O)N=C1SC2CS(=O)(=O)CC2N1Cc1ccc(F)cc1 (stereo unspecified) | – | inconclusive: 29.1 µM [activator, partial curve, poor fit]
58 | Cn1c(=S)[nH]c2c(c1=O)C(C)(C)Cc1ccccc1-2 | inactive: -8.82% | –
59 | CCN(CC)CCCNC(=O)c1ccc(OCC(=O)Nc2ccccc2C(F)(F)F)c(OC)c1 | – | inconclusive: 20.6 µM [activator, single point]
60 | CC(C)Cn1c(N)c(C(=O)CSc2nnc(-c3ccco3)n2C)c(=O)n(C)c1=O | – | inconclusive: 1.84 µM [activator, partial curve, poor fit]
61 | COc1cccc(OC)c1-c1nn2c(-c3cc(-c4ccccc4)n[nH]3)nnc2s1 | – | active: 9.2 µM
62 | O=C(CC1SC(N2CCCC2)=NC1=O)Nc1ccc(C(=O)Nc2ncccc2O)cc1 (stereo unspecified) | inactive: 17.3% | –
63 | Nc1nonc1-n1nnc(C(=O)N/N=C/c2ccccc2)c1CSc1ccccc1 | – | inconclusive: 29.1 µM [activator, single point]
64 | CC(=O)N(CCC(Cc1ccccc1)c1ccc2c(c1)OCO2)Cc1ccc(Cl)cc1 (stereo unspecified) | – | inconclusive: 20.6 µM [activator, partial curve, poor fit]
65 | COc1cc(/C=N/Nc2ccccn2)ccc1O | inactive: -4.79% | –
66 | C#CCOCCOCCOCCNc1nc(N2CCN(C(=O)[C@H]([C@@H](C)CC)n3cc([C@@H](N)CO)nn3)CC2)nc(N2CCN(C(=O)[C@H](Cc3ccc(O)cc3)n3cc([C@@H](N)CC(C)C)nn3)CC2)n1 | – | inconclusive: 29.1 µM [activator, single point]

Reference: PubChem BioAssay AID624297 (National Center for Advancing Translational Sciences (NCATS), 2012)
